Results deposited as PubChem BioAssay AID504791 (Drosophila RNAi Screening Center, 2011).

Aim: 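Genes of the fly required for silencing by miRNA, siRNA or endo-siRNA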 (primary screen)
Cell system: Drosophila S2-derived reporter cells
Knock-down reagent: long dsRNA against Drosophila genes, about 150-250 ng dsRNA per well (siRNA assay); about 80-120 ng (miRNA assay)
Time to read-out: about 5 days (siRNA assay); about 4 days (miRNA assay)
Conditions: copper sulfate induction of reporters: 25 µM (siRNA assay); 200 mM stated (miRNA assay), 1-2 days before reading
Measured: 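Per-well ratio of Renilla over firefly light, expressed relative to that plate's average ratio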
Active means: 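a well was a first-pass pick when its plate-scaled ratio rose above 1.5 (siRNA assay) or 1.6 (miRNA assay), or dropped below 0.6; a gene counted only if two separate dsRNAs agreed on retest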
The deposit covers about 23,000 reagents; this is an unselected part of those that have a named target and a result. Of all reagents, 199 (0.86%) got an active call. 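Plate-scaled ratios behind the calls are not deposited; printed light signals are raw; many rows marked increased or decreased are still called inactive.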 Reagents against one gene are numbered here. A plus sign joins genes that one reagent is predicted to hit. The record does not give: the direction of the score.

The first 4 records, ahead of the listing:
| gene knocked down | reagent | stable siRNA reporter change | stable assay Renilla, run 1 (luminescence) | stable assay firefly, run 1 (luminescence) | outcome |
| --- | --- | --- | --- | --- | --- |
| CG34228 | 1 | – | 5636 | 3.92e5 | inactive |
| Shawn + Tyler | 1 | – | 7887 | 5.81e5 | inactive |
| Shawn + Tyler | 2 | – | 5871 | 4.54e5 | inactive |
| cher (cheerio) | 1 | – | 7482 | 2.76e5 | inactive |

The listing, from the first entry:
| gene knocked down | reagent | stable siRNA reporter change | stable assay Renilla, run 1 (luminescence) | stable assay firefly, run 1 (luminescence) | outcome |
| --- | --- | --- | --- | --- | --- |
| CG34228 | 1 | – | 5636 | 3.92e5 | inactive |
| Shawn + Tyler | 1 | – | 7887 | 5.81e5 | inactive |
| Shawn + Tyler | 2 | – | 5871 | 4.54e5 | inactive |
| cher (cheerio) | 1 | – | 7482 | 2.76e5 | inactive |
| CG14984 | 1 | – | 6320 | 3.53e5 | inactive |
| Dic4 | 1 | – | 6878 | 4.52e5 | inactive |
| Taf1 (TBP-associated factor 1) | 1 | – | 5495 | 5.07e5 | inactive |
| dare + CG30033 | 1 | – | 3791 | 3.27e5 | inactive |
| Rbbp5 (Retinoblastoma binding protein 5) | 1 | – | 10834 | 3.98e5 | inactive |
| sti (sticky) | 1 | – | 6415 | 4.81e5 | inactive |
| sti (sticky) | 2 | – | 6044 | 3.93e5 | inactive |
| CG14006 | 1 | – | 7183 | 3.63e5 | inactive |
| CG30391 | 1 | – | 9969 | 5.33e5 | inactive |
| Tmem131 (Transmembrane protein 131) | 1 | – | 9210 | 3.17e5 | inactive |
| al (aristaless) | 1 | – | 4611 | 3.26e5 | inactive |
| Inx6 (Innexin 6) | 1 | – | 7619 | 4.70e5 | inactive |
| CG10298 | 1 | – | 6862 | 3.43e5 | inactive |
| mRpL2 (mitochondrial ribosomal protein L2) | 1 | – | 4391 | 3.01e5 | inactive |
| Slik (Sterile20-like kinase) | 1 | – | 8679 | 1.84e6 | inactive |
| Chchd3 (Coiled-coil-helix-coiled-coil-helix domain containing 3) | 1 | – | 6043 | 3.91e5 | inactive |
| CG4372 | 1 | – | 6923 | 3.45e5 | inactive |
| Tsp42Eq (Tetraspanin 42Eq) | 1 | – | 6882 | 4.72e5 | inactive |
| Z600 | 1 | – | 7302 | 4.83e5 | inactive |
| INPP5E (Inositol polyphosphate 5-phosphatase E) | 1 | – | 6419 | 2.91e5 | inactive |
| Mal-B1 (Maltase B1) | 1 | – | 7559 | 5.21e5 | inactive |
| twin | 1 | – | 7358 | 3.14e5 | inactive |
| twin | 2 | – | 7391 | 3.43e5 | inactive |
| twin | 3 | – | 7642 | 4.54e5 | inactive |
| msd1 (mitotic spindle density 1) | 1 | – | 6307 | 4.29e5 | inactive |
| Sodh2 (Sorbitol dehydrogenase 2) | 1 | – | 6587 | 3.92e5 | inactive |
| CG13332 | 1 | – | 6395 | 3.83e5 | inactive |
| Lnpk (Lunapark) | 1 | – | 5475 | 3.62e5 | inactive |
| CG14050 | 1 | – | 6238 | 4.12e5 | inactive |
| Veneno | 1 | – | 8351 | 4.29e5 | inactive |
| Usp10 (Ubiquitin specific protease 10) | 1 | – | 11598 | 2.83e5 | inactive |
| Usp10 (Ubiquitin specific protease 10) | 2 | – | 7240 | 2.98e5 | inactive |
| Cbp53E (Calbindin 53E) | 1 | – | 10725 | 4.11e5 | inactive |
| Vha16-2 (Vacuolar H[+] ATPase 16kD subunit 2) | 1 | – | 5963 | 3.52e5 | inactive |
| CG10337 | 1 | – | 6624 | 3.99e5 | inactive |
| Pdxk (Pyridoxal kinase) | 1 | – | 5855 | 5.48e5 | inactive |
| l(3)L1231 (lethal (3) L1231) | 1 | – | 9200 | 3.81e5 | inactive |
| CG32720 | 1 | – | 4783 | 4.45e5 | inactive |
| Pnn (Pinin) | 1 | – | 6866 | 3.45e5 | inactive |
| CG10907 | 1 | – | 7026 | 4.11e5 | inactive |
| CG6293 | 1 | – | 7226 | 3.81e5 | inactive |
| mRpL55 (mitochondrial ribosomal protein L55) | 1 | reporter ratio lowered past the hit cutoff | 6856 | 5.76e5 | inactive |
| Traf-like (TNF-receptor-associated factor-like) | 1 | – | 8971 | 4.99e5 | inactive |
| Xpac (Xeroderma pigmentosum group A-like) | 1 | – | 7334 | 4.12e5 | inactive |
| Mos (Mos oncogene) | 1 | – | 6631 | 2.88e5 | inactive |
| CG32750 | 1 | – | 6111 | 3.02e5 | inactive |
| Naa20B (N(alpha)-acetyltransferase 20 B) | 1 | – | 10205 | 4.70e5 | inactive |
| PK2-R2 (Pyrokinin 2 receptor 2) | 1 | – | 6980 | 3.87e5 | inactive |
| CG32568 | 1 | – | 6371 | 5.19e5 | inactive |
| CG15393 (retired record) | 1 | – | 8437 | 4.58e5 | inactive |
| Snm1 | 1 | – | 8266 | 5.19e5 | inactive |
| Etl1 | 1 | – | 13177 | 6.06e5 | inactive |
| kcc (kazachoc) | 1 | – | 5583 | 1.21e6 | inactive |
| kcc (kazachoc) | 2 | – | 7363 | 3.40e5 | inactive |
